# Test results published in patent US20030207263.
# Chains of the proteins cited; added tags and fusions are not shown. Where a name states a change or a piece, a line headed by the entry shows the natural chain unless it says otherwise. A line that says so, or that is headed by a name, gives the form on record, which may keep a tag or linker.
# UniProt Q15796: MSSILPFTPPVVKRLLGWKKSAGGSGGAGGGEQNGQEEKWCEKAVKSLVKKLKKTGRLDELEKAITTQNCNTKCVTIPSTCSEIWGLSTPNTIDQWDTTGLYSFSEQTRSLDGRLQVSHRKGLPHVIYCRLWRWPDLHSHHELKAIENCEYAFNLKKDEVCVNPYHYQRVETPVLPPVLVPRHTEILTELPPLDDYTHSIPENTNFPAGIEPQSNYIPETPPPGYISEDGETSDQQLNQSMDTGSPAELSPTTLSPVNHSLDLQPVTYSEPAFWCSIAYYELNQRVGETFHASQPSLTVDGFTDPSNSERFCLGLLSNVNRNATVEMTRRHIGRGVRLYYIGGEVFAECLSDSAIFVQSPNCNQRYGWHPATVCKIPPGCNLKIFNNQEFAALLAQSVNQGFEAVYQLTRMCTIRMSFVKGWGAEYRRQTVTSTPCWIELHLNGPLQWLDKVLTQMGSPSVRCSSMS
# UniProt P84022: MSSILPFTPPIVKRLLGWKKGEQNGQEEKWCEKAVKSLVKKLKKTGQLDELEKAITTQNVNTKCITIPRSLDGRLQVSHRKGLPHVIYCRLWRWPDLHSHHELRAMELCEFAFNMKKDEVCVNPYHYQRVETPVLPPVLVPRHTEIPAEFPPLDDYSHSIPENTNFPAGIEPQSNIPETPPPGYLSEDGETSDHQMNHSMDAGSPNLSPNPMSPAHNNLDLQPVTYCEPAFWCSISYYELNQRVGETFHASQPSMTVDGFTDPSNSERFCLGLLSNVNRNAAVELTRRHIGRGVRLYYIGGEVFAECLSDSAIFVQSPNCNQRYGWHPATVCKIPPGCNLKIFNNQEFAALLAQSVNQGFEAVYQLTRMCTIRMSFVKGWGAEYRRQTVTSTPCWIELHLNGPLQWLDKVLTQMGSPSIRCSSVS
# UniProt Q13485: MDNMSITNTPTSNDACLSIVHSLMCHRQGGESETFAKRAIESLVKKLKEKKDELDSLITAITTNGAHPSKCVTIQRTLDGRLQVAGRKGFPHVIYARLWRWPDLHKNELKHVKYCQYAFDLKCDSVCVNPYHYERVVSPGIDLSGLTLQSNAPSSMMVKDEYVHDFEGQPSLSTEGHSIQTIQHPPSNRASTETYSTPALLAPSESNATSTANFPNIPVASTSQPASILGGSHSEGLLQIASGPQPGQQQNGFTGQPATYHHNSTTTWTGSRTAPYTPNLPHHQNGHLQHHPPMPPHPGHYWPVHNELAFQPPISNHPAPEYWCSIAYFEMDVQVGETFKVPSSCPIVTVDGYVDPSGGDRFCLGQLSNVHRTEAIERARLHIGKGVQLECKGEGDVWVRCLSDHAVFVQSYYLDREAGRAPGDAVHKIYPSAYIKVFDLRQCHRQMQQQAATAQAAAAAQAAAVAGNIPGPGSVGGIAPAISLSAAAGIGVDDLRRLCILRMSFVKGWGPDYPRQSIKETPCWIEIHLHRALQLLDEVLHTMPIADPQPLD
# UniProt Q15797: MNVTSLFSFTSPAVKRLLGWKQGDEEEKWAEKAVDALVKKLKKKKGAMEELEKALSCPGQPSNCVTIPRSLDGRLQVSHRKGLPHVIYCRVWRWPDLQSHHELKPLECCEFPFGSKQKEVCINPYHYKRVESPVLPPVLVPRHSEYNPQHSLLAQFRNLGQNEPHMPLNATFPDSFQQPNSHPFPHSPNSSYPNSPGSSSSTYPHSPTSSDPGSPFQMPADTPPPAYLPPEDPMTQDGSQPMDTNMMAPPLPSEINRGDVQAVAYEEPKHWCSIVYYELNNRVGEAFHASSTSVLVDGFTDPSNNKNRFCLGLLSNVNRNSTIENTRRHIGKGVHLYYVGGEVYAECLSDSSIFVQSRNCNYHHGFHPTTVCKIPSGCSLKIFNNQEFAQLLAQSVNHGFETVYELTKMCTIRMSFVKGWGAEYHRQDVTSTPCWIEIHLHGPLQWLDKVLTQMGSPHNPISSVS
# Smad3/Smad4-containing nuclear complex (Homo sapiens), one chain, as listed by the source, chain 2 of 2: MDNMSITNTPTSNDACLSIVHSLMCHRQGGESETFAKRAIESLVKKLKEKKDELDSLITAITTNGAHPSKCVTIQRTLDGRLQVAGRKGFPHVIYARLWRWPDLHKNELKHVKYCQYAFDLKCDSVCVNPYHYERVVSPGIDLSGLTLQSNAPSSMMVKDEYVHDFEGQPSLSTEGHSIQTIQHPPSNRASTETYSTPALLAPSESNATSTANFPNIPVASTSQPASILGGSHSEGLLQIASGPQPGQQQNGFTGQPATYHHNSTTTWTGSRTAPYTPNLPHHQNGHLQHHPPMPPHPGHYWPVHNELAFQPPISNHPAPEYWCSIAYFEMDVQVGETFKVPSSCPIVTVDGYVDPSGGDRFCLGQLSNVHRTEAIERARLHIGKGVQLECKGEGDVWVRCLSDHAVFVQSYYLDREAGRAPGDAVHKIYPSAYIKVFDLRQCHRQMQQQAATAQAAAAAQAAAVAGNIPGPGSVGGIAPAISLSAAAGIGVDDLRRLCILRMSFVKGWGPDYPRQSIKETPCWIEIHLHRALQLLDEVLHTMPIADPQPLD
# Smad3/Smad4-containing nuclear complex (Homo sapiens), one chain, as listed by the source, chain 1 of 2: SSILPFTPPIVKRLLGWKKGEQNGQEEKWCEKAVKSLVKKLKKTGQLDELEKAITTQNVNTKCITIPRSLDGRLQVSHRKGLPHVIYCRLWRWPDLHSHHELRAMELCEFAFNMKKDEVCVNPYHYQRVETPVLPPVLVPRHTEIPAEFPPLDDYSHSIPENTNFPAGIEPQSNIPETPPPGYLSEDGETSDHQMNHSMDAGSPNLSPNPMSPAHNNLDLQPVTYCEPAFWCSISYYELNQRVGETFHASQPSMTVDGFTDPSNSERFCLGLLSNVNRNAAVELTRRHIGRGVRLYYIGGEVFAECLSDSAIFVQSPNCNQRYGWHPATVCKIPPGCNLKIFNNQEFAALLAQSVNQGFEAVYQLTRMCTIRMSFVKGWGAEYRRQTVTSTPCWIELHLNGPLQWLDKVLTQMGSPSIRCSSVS
# How the values were obtained:
# [1] = tested on: Smad3/Smad4-containing nuclear complex (Homo sapiens); assay: competition with a labelled probe; details: protein in an extract, protein details: TGFβ-induced HepG2 nuclear extract
# [2] = target: Smad2 ΔTID deletion Ser79-Thr108 (Homo sapiens) (UniProt Q15796); assay: EMSA; details: protein translated in vitro; label: 33P
# [3] = target: GST-Smad3 ΔMH2 MH2 domain deleted (UniProt P84022); assay: EMSA; details: direct and specific; 4 mM MgCl2, 37 C; purified recombinant protein; protein details: GST, E. coli; label: 33P
# [4] = target: GST-Smad4 ΔMH2 MH2 domain deleted (UniProt Q13485); assay: EMSA; details: direct and specific; 4 mM MgCl2, 37 C; purified recombinant protein; protein details: GST, E. coli; label: 33P
# [5] = target: Smad2 ΔGAG deletion Ser21-Gly30 (Homo sapiens) (UniProt Q15796); assay: EMSA; details: protein translated in vitro; label: 33P
# [6] = target: Smad2 ΔGAG ΔTID deletion Ser21-Gly30 and Ser79-Thr108 (Homo sapiens) (UniProt Q15796); assay: EMSA; details: protein translated in vitro; label: 33P
# [7] = target: GST-Smad1 ΔMH2 MH2 domain deleted (UniProt Q15797); assay: EMSA; details: purified recombinant protein; protein details: GST, E. coli; label: 33P
# [8] = target: GST-Smad2 ΔMH2 MH2 domain deleted (UniProt Q15796); assay: EMSA; details: purified recombinant protein; protein details: GST, E. coli; label: 33P
# [9] = target: GST-Smad3 full length (UniProt P84022); assay: EMSA; details: GST fusion; non-GST Smad3 binds; purified recombinant protein; protein details: GST, E. coli; label: 33P
# [10] = target: Smad3 +GAG insertion of Smad2 GAG (Ser21-Gly30 of Smad2) (Homo sapiens) (UniProt P84022); assay: EMSA; details: protein translated in vitro; label: 33P
# [11] = tested on: Smad3/Smad4-containing nuclear complex (Homo sapiens); assay: EMSA; details: TGFβ-induced complex; supershifted by anti-Smad3 and anti-Smad4; protein in an extract; protein details: TGFβ-induced HepG2 nuclear extract; label: 33P
# [12] = target: Smad3 +GAG +TID insertion of Smad2 GAG and TID (Homo sapiens) (UniProt P84022); assay: EMSA; details: protein translated in vitro; label: 33P
# [13] = target: Smad3 +TID insertion of Smad2 TID (Ser79-Thr108 of Smad2) (Homo sapiens) (UniProt P84022); assay: EMSA; details: protein translated in vitro; label: 33P
# [14] = excess cold competitor does not displace
sequence,measurement,setting,value
CCGGTTTGGATTGAAGCCAATATG (double strand) [NF-1 site],binding result,[1]; [14],no binding
TCGAGAGCCAGACAAGGAGCCAGACAAGGAGCCAGACAC (double strand) [CAGA probe],binding result,[2],binds
same,binding result,[3],binds
same,binding result,[4],binds
same,binding result,[5],no binding
same,binding result,[6],binds
same,binding result,[7],no binding
same,binding result,[8],no binding
same,binding result,[9],no binding
same,binding result,[10],binds
same,binding result,[11],binds
same,binding result,[12],no binding
same,binding result,[13],no binding
CCGGGATGACTCAGC (double strand) [AP-1 site],binding result,[1]; [14],no binding
TCGAGGACAGGGGGCGGAGCCTC (double strand) [Sp1 site],binding result,[1]; [14],no binding
"TCGAGGCTGCCCTAAAATGTGTATTCCATGGAAATGTCTGCCCTTCTCTC (double strand) [competitor oligonucleotide (FAST-1 site, inferred)]",binding result,[1]; [14],no binding
TCGAGAGCTACATAAAAAGCTACATATTTAGCTACATAC (double strand) [CAGA mutant oligonucleotide],binding result,"[1]; excess cold competitor (50 or 100 molar) does not displace, variant of CAGA probe",no binding

# For some assays here: A negative result means that nothing was seen under these conditions. For some assays here: Results from cells or extracts need not show a direct contact. For some assays here: For at least one entry, the source does not settle the construct or the ends of the probe.
